Strings that start with PEPTIDE1 are HELM notation: dots part the residues, brackets hold end groups and non-standard residues.
Test: general procedure: Boc solid-phase peptide synthesis; aminoacyl-4-(oxymethyl)phenylacetamidomethyl-resin (PAM)
Conditions: whole synthesis

**Q.** What does the source list for “PEPTIDE1{S.D.A.A.V.D.T.S.S.E.I.T.T.K.D.L.K.E.K.K.E.V.V.E.E.A.E.N}$$$$V2.0”?
**A.** difficulty met: the large deletion may have occurred at Lys(Tfa)^17; isolated yield (overall isolated yield based on C-terminal Asn): 31%

Reference: patent US4560676A (The Rockefeller University, priority 1981, dated 1985)
